Library screening results

From ChEMBL document CHEMBL3988442, “University of Dundee, Small-Polar-MMV Screening Library” (2021).

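Viability assay of Plasmodium falciparum sporozoites; the read-out is not stated. The concentration is filed as 10 mM, unlikely as a test dose, so the dose is not known. The record gives no direction; compounds that gave an IC50 in retests scored well above the rest, so higher reads as lower viability. Strong results were mostly tested again. About 34,000 compounds were tested under these conditions; 0.84% (about 280) showed 50% or more at least once.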

The filed quantity is “Percent Effect” (%).
The controls that fix the scale are not given in the record; negative values are as filed.
Compounds were drawn at random from those tested, without regard to their results.
Two or more numbers in one place are separate tests of the same structure; such repeats can differ widely.

compound	percent effect
O=C(c1ccc(=O)[nH]n1)N1CCCC1C1CCCC1 (stereo unspecified)	-2.105%
Clc1cc(NCc2ccncc2)nc2[nH]ccc12	-12.53%
Nc1nc(O)cc(N2CCC(c3cc(Cc4ccccc4)n[nH]3)CC2)n1	-48.22% and -4.585% and -36.1%
CC(CCc1ccccc1)NC(=O)CNCCCN1CCOCC1.O=C(O)C(=O)O (stereo unspecified)	3.176%
COCCn1ccc2cc(NC(=O)COC)ccc21	-1.384%
O=C(O)C(F)(F)F.O=C(O)C(F)(F)F.O=C(O)C(F)(F)F.[H][C@@]12COC[C@]1(C(=O)NCc1ccccn1)CN(Cc1cccnc1)C2	-0.4386%
CNCc1nc(-c2ccc3c(c2)OCO3)c[nH]1.Cl.Cl	-2.525%
CN1CCN(C2CCN(CCOc3ccc(F)cc3)CC2)C1=O	2.944%
Cc1ncc(-c2ccccn2)c(CCNC(=O)C2CCCC2)n1	-0.9974%
Cc1nc2n(n1)CC(NCc1cc(Cl)c3c(c1)OCCCO3)CC2 (stereo unspecified)	-0.7335%
CNC(=O)COc1ccc(CNc2cncc(-n3cccn3)n2)cc1	10.74%
Cc1ccc(F)c(S(=O)(=O)NCc2cccc(C(=O)N3CCCC3)c2)c1	7.63%
Cn1ccnc1CN1CCN(Cc2ccccc2C#N)CC1	16.22%
COCCCN1CC2(CCN(Cc3cc(C(C)C)no3)CC2)CC1=O	-1.491%
COc1ccc(CN2CCc3nc(C4CCCCN4C)ncc3C2)cc1 (stereo unspecified)	-18.11%
CCc1c(C)nc2n(c1=O)CC(C(=O)Nc1ccccc1F)CS2 (stereo unspecified)	-13.97%
CN(C)c1ccc(C(=O)Nc2ccn(CCc3ccncc3)n2)cn1	7.353%
CN(C)CC1CN(Cc2nnc(-c3ccccc3Cl)o2)CCO1 (stereo unspecified)	-15.44%
c1cc(C2CN(C3CCCCC3)C2)n[nH]1	-3.043%
N#Cc1cnn(-c2ccc(C(=O)N(C3CCCCC3)C3CC3)cc2)c1N	1.553%
Cc1nnn2c1COC(CNC(=O)c1cccn1C)C2 (stereo unspecified)	-20.19%
CCn1nc(CC(C)C)cc1C(=O)N1CCN([C@H]2CCCC[C@@H]2O)CC1	1.538%
COc1c(CNCc2ccc(S(C)(=O)=O)cc2)c(C)nn1C	5.942%
CCNc1cc2c(nn1)CCN(C(=O)CCc1c(C)noc1C)C2	1.278%
CC(NC(=O)NCc1cccnc1N(C)C)c1ccc(F)cc1 (stereo unspecified)	2.149%
COc1ccccc1CNC(C)c1ccc2[nH]c(=O)[nH]c2c1 (stereo unspecified)	15.24%
CNS(=O)(=O)c1ccc(C)c(C(=O)NCCNc2ncccn2)c1	1.167%
CCOc1ccccc1CSc1nnc(CC2CCS(=O)(=O)C2)n1C (stereo unspecified)	-0.692%
[H][C@]12CC[C@]([H])(CN(c3cnccn3)C1)N(C(=O)c1cnc(C)cn1)C2	-3.684%
[H][C@@]12CS(=O)(=O)C[C@]1([H])N(C(=O)c1cncnc1C)CCN2CCC	20.4%
Cc1ncc2c(n1)CN(Cc1nc3ccccc3o1)CC2	-22.06%
CC1=Nc2c(c(=O)[nH]n2C2CCCC2)C(c2ccc(C(=O)O)cc2)S1 (stereo unspecified)	-7.784%
O=C(O)C(F)(F)F.O=C(O)C(F)(F)F.[H][C@@]12COC[C@]1([H])[C@@H](OCCN(C)C)CN2Cc1cccc(C#N)c1	12.01%
Cn1cc(C(=O)N2CCC(c3nccn3Cc3ccncc3)CC2)cn1	-0.08772%
Cc1ncsc1C(=O)NCCn1nc(C2CCNC2)c2cccnc21.Cl (stereo unspecified)	-7.728%
CCOCC(=O)N1CCCC2(CCN(c3ccccc3)C2=O)C1 (stereo unspecified)	12.7%
Cn1c(CN2CCCC2c2noc(C3CC3)n2)cc(=O)n(C)c1=O (stereo unspecified)	3.431%
Cc1cn2c(n1)CCC(NC(=O)c1[nH]ncc1Br)C2 (stereo unspecified)	-6.244%
O=C(NCc1ccccn1)C1=NN(c2ccccc2)C(=O)CN1	6.211%
CCn1c(C)nnc1SCCn1cc(-c2nccs2)nn1	-9.385%
Cc1cnc(N)c(C(=O)C2CCN(C(=O)c3cnc(C)cn3)CC2)c1	1.68%
OC1CCN(C2CCN(Cc3cccc(Cn4cccn4)c3)CC2)CC1	1.316%
Cn1ccnc1CN1CCCC(Cc2ccnc3ccncc23)CC1.O=CO (stereo unspecified)	13.39%
Cc1cc(CN(C)C(=O)NC(C)c2nncn2C)no1 (stereo unspecified)	-4.479%
COc1ccc(NC(C)C(=O)N2CCN(c3ncccn3)CC2)cn1 (stereo unspecified)	-13.34%
O=C(c1cc2cc(F)ccc2[nH]1)N1CCC(Nc2ccc(F)cc2)CC1	-5.409%
Cc1cc(C)c2nc(CN3CCOC(CCO)C3)cc(O)c2c1 (stereo unspecified)	5.765%
O=C(Cc1cccc(F)c1)N1CCc2ncnc(NC3CCC3)c2CC1	11.26%
CC(C)CN(C)Cc1nc2c(cnn2C)c(=O)[nH]1	7.587%
O=S(=O)(Nc1cnn(C2CCOCC2)c1)c1ccc2c(c1)CCO2	-7.263%
CN(C)c1ncc2c(O)nc(C3CCCNC3)cc2n1 (stereo unspecified)	10.84%
CCc1nc(CN2CCCN(C(=O)COC)CC2)cs1	5.644%
Brc1cccnc1OC1CCNCC1.Cl	-14.88% and -22.54%
Cc1nc(CN2CCCC(NCC(=O)Nc3cccnc3)C2)no1 (stereo unspecified)	-11.37%
CS(=O)(=O)N1CCCC(C(=O)Nc2cnn(COCC(F)(F)F)c2)C1 (stereo unspecified)	6.22%
O=C(NCCNC1CCCC1)c1cccs1	2.088%
CC(=O)N1CCC2(CC1)CCN(S(=O)(=O)c1ccccc1)C2	5.692%
O=C(C1CC1)N1CCC(Nc2nc(O)cc(-c3ccsc3)n2)CC1	15.6%
CCNc1nc(-c2cccnc2)c(-c2ccnc(N3CCCC3)n2)s1	4.657%
CN(Cc1ccccc1F)C(=O)Cn1cc(NC(=O)C(C)(C)C)cn1	0.3911%
Cc1cc(C(=O)N2CCCC2)ccc1NS(C)(=O)=O	-8.158%
O=C(O)C(F)(F)F.[H][C@@]12OCCN(Cc3ccc(F)cc3)[C@@]1([H])CC[C@H]2OCC1CC1	-7.251%
Cc1cccc(NC2CCN(C(=O)Nc3ccc(F)c(F)c3)CC2)n1	48.63% and 63.22% and 54.45%
COC(=O)c1cccn1C1CCN(Cc2cccnc2)CC1	-5.537%
COc1cccc([C@@H]2CN(C(=O)c3ccc(C)cc3O)C[C@H]2C(=O)O)c1	-15.22%
CCNC(=O)NCCc1csc(N2CCCC2)n1	-15.2%

8 of the entries, repeated:

compound	percent effect
O=S(=O)(Nc1cnn(C2CCOCC2)c1)c1ccc2c(c1)CCO2	-7.263%
Nc1nc(O)cc(N2CCC(c3cc(Cc4ccccc4)n[nH]3)CC2)n1	-48.22% and -4.585% and -36.1%
COC(=O)c1cccn1C1CCN(Cc2cccnc2)CC1	-5.537%
CN(Cc1ccccc1F)C(=O)Cn1cc(NC(=O)C(C)(C)C)cn1	0.3911%
O=C(O)C(F)(F)F.O=C(O)C(F)(F)F.[H][C@@]12COC[C@]1([H])[C@@H](OCCN(C)C)CN2Cc1cccc(C#N)c1	12.01%
Cn1c(CN2CCCC2c2noc(C3CC3)n2)cc(=O)n(C)c1=O (stereo unspecified)	3.431%
COc1ccc(NC(C)C(=O)N2CCN(c3ncccn3)CC2)cn1 (stereo unspecified)	-13.34%
Cc1nc(CN2CCCC(NCC(=O)Nc3cccnc3)C2)no1 (stereo unspecified)	-11.37%